In paper PMC3549248, “Charcot–Marie–Tooth type 2B disease-causing RAB7A mutant proteins show altered interaction with the neuronal intermediate filament peripherin” (Acta Neuropathologica, 2012):
These are yes or no findings as the source states them, for the method shown. For part of these data: Binding seen in cells or lysates may run through a third protein. Some results given as binding are weak or reduced against the parent protein; the word gives no strength. Blank lines part the entries; values can stand above or below the molecule they belong to.

The chains behind the UniProt entries cited, without tags or fusion partners. Where a name states a change or a piece, a line headed by the entry shows the natural chain unless it says otherwise. Residues count along the entry.
UniProt P41219: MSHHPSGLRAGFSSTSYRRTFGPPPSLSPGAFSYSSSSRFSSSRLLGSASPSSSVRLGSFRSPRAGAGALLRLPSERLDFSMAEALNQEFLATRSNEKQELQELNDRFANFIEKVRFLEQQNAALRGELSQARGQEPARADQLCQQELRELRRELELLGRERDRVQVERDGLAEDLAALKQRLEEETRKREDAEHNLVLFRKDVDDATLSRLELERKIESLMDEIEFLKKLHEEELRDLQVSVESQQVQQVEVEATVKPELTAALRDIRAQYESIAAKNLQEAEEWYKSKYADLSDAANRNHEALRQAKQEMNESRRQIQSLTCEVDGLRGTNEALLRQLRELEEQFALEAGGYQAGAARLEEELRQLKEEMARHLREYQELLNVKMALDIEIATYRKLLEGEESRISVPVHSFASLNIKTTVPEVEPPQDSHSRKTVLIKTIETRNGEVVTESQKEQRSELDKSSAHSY
UniProt P18067: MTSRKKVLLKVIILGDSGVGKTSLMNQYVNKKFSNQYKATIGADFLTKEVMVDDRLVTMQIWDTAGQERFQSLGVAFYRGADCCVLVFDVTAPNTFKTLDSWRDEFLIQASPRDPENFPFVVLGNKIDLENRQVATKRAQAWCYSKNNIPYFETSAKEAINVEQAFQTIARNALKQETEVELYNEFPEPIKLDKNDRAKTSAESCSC
GAL4-binding domain/RAB7A ΔC fusion construct: residues 1-204 of P18067
UniProt P51150: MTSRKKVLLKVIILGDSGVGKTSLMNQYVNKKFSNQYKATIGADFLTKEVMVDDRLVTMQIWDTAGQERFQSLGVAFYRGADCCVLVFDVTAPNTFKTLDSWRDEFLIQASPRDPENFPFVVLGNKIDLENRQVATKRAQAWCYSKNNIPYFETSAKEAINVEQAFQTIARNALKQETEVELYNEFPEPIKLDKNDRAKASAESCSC
UniProt P21807: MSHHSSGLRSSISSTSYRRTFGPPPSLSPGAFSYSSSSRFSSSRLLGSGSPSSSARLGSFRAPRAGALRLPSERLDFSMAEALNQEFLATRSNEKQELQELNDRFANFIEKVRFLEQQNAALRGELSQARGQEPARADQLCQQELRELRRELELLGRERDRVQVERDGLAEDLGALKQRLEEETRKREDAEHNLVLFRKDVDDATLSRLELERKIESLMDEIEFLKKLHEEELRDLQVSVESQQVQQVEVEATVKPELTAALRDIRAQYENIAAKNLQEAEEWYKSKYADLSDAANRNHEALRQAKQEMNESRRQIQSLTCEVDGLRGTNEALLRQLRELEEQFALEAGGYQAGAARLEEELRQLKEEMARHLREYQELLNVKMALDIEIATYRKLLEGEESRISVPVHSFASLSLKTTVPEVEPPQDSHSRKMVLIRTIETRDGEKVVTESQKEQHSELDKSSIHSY

How the values were obtained:
GST-tagged peripherin = GST-tagged peripherin (UniProt P41219); assay: pull-down; purified His-RAB7A incubated with GST or GST-peripherin in PBS with 2 mM MgCl2 and 0.8 mM GTP for 1 h; glutathione resin; blot with anti-RAB7A; both purified
HA-tagged RAB7A wt [1] = target: HA-tagged RAB7A wt (UniProt P18067); assay: co-IP; HeLa cells expressing HA-RAB7A wt and MYC-peripherin 45 and/or MYC-peripherin 58; anti-HA immunoprecipitation; blot with anti-peripherin
HA-tagged RAB7A L129F = target: T1, HA-tagged RAB7A L129F (UniProt P18067 1-207, L129F); assay: co-IP; as the co-immunoprecipitation in Neuro2A cells, but in PC12 cells; data not shown
T1 construct: RAB7A with a CMT2B disease mutation; plasmid described previously; also called disease-causing mutant; source: Neuro2A or PC12 cells, transfected, in lysate

HA-tagged RAB7A K157N = target: T2, HA-tagged RAB7A K157N (UniProt P18067 1-207, K157N); assay: as above
T2 construct: RAB7A with a CMT2B disease mutation; plasmid described previously; also called disease-causing mutant; source: Neuro2A or PC12 cells, transfected, in lysate

HA-tagged RAB7A N161T = target: T3, HA-tagged RAB7A N161T (UniProt P18067 1-207, N161T); assay: as above
T3 construct: RAB7A with a CMT2B disease mutation; plasmid described previously; also called disease-causing mutant; source: Neuro2A or PC12 cells, transfected, in lysate

MYC-tagged RAB7A wt [2] = target: MYC-tagged RAB7A wt (UniProt P18067); assay: as above
HA-tagged RAB7A wt [3] = target: HA-tagged RAB7A wt (UniProt P18067); assay: as above
HA-tagged RAB7A Q67L [4] = target: HA-tagged RAB7A Q67L (UniProt P18067); assay: as above
HA-tagged RAB7A V162M = target: T4, HA-tagged RAB7A V162M (UniProt P18067 1-207, V162M); assay: as above
T4 construct: RAB7A with a CMT2B disease mutation; plasmid described previously; also called disease-causing mutant; source: Neuro2A or PC12 cells, transfected, in lysate

[5] = target: GAL4-binding domain/RAB7A ΔC fusion construct (canine) (UniProt P18067); assay: two-hybrid; screen of a human DRG cDNA library (Gal4 activation domain fusions in pGADT7Rec) with the Gal4-binding domain/RAB7A ΔC bait in AH109 yeast; synthetic medium lacking His, Leu and Trp, 30 °C
MYC-tagged RAB7A wt [6] = target: MYC-tagged RAB7A wt (UniProt P18067); assay: co-IP; Neuro2A cells transfected with HA- or MYC-tagged RAB7A; RIPA lysate; anti-HA or anti-MYC resin 1 h at 4 °C; blot for endogenous peripherin
HA-tagged RAB7A wt [7] = target: HA-tagged RAB7A wt (UniProt P18067); assay: as above
HA-tagged RAB7A Q67L [8] = target: HA-tagged RAB7A Q67L (UniProt P18067); assay: as above
His-tagged RAB7A wt = His-tagged RAB7A wt (UniProt P18067); assay: pull-down; 20 μg purified His-tagged RAB7A bound to NiNTA resin, incubated with Neuro2A cell extracts at 4 °C for 1 h; blot for peripherin; only the target purified
[9] = target: RAB7A (endogenous, Neuro2A cells) (mouse (endogenous in Neuro2A)) (UniProt P51150); assay: co-IP; endogenous proteins; mouse anti-RAB7 antibody crosslinked to resin (DSS, Pierce kit), pre-cleared Neuro2A lysate; blot with rabbit anti-RAB7A and anti-peripherin

binding (GST-tagged peripherin): binds
Molecule: His-tagged RAB7A wt (from UniProt P18067 1-207)

binding (HA-tagged RAB7A wt [1]): binds
Molecule: MYC-peripherin 45 (from UniProt P41219 82-470) (domain or fragment)

Further lines, the molecule ahead of its results:

Molecule: peripherin (endogenous, PC12 cells) (from UniProt P21807 1-468)
binding (HA-tagged RAB7A L129F): binds | binding (HA-tagged RAB7A K157N): binds | binding (HA-tagged RAB7A N161T): binds | binding (MYC-tagged RAB7A wt [2]): binds | binding (HA-tagged RAB7A wt [3]): binds | binding (HA-tagged RAB7A Q67L [4]): binds | binding (HA-tagged RAB7A V162M): binds

Molecule: peripherin, longest library clone (residue 280 to the end) (from UniProt P41219 280-470) (domain or fragment)
binding [5]: binds

B1: peripherin (endogenous, Neuro2A cells) (natural protein, mouse (endogenous in Neuro2A), UniProt P15331 1-475, looked up)
chain: MPSSASMSHHHSSGLRSSISSTSYRRTFGPPPSLSPGAFSYSSSSRFSSSRLLGSGSPSSSARLGSFRAPRAGALRLPSERLDFSMAEALNQEFLATRSNEKQELQELNDRFANFIEKVRFLEQQNAALRGELSQARGQEPARADQLCQQELRELRRELELLGRERDRVQVERDGLAEDLAALKQRLEEETRKREDAEHNLVLFRKDVDDATLSRLELERKIESLMDEIEFLKKLHEEELRDLQVSVESQQVQQVEVEATVKPELTAALRDIRAQYENIAAKNLQEAEEWYKSKYADLSDAANRNHEALRQAKQEMNESRRQIQSLTCEVDGLRGTNEALLRQLRELEEQFALEAGGYQAGAARLEEELRQLKEEMARHLREYQELLNVKMALDIEIATYRKLLEGEESRISVPVHSFASLSLKTTVPEMEPLQDSHSKKMVLIRTIETRDGEKVVTESQKEQHSDLDKSSIHSY
notes: peripherin endogenous in mouse Neuro2A neuroblastoma cells, detected with anti-peripherin antibodies; main form of 58 kDa (Per-58); also called Per-58; source: endogenous, Neuro2A lysate
binding (MYC-tagged RAB7A wt [6]): binds | binding (HA-tagged RAB7A wt [7]): binds | binding (HA-tagged RAB7A Q67L [8]): binds | binding (His-tagged RAB7A wt): binds | binding [9]: binds
